Source: patent publication US4694069A, “Kibdelosporangium aridum SK&F-AAD-609” (SmithKline Beckman Corporation, priority 1985, dated 1987)

System: SK&F-AAD-609
Test: Susceptibility of SK&F-AAD-609 to antibiotics (diffusion method, BBL susceptibility disks)
Format: cell-based, Kibdelosporangium aridum subsp. largum
Settings: disk 2 μg; 28° C., one week
Protocol: Susceptibility of SK&F-AAD-609 to antibiotics was examined by placing BBL susceptibility disks on nutrient agar plates seeded with SK&F-ADD-609 as an agar overlay. Plates were placed at 4° C. for one hour to permit diffusion of the anitbiotics and, subsequently, incubated at 28° C. Diameters of the zones of inhibition were measured after incubation for one week.
Susceptibility to Antibiotics. […] Chlortetracycline (5 μg) produced 17-18 mm zones of inhibition; tetracycline (5 μg) 9-12 mm zones; rifampin (5 μg) 10-12 mm zones; novobiocin (5 μg) 30-35 mm zones. All zones of inhibition contained at least a few resistant colonies.

For `CCC[C@@H]1C[C@@H](C(=O)N[C@@H]([C@H]2O[C@H](SC)[C@H](O)[C@@H](O)[C@H]2O)[C@H](C)Cl)N(C)C1` [clindamycin], the “Susceptibility (diffusion method)” value was “resistant”.
